Data reported in article PMC7819943, “Rice protein-binding microarrays: a tool to detect cis-acting elements near promoter regions in rice”.
Some of the results follow.

Target: T1, OsSMF1 (Oryza sativa, UniProt Q6ZLB0 1-436)
T1 sequence: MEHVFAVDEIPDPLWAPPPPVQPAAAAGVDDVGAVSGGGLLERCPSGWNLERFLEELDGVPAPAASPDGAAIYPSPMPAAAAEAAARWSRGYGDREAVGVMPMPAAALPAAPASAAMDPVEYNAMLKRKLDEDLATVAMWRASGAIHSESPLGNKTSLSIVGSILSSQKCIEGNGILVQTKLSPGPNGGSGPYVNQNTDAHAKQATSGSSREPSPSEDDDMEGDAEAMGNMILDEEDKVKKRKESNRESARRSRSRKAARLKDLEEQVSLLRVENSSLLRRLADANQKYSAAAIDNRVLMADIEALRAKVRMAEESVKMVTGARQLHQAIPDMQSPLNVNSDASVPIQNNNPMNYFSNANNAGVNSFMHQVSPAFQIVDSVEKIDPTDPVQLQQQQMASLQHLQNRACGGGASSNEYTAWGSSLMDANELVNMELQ
Experiment: protein-binding microarray (RPBM); PBS, 2% BSA, 51.3 ng/ul salmon testes DNA, 50 uM zinc acetate, 200 nM TF, 25 C, 1 h; high values mean tight binding
Conditions: protein: recombinant; tags: N-terminal polyhistidine and DsRed monomer fusion (pET32a); chain copies: 2; label: CyDye5-dUTP incorporated in the synthesized complementary strand; 3' TTTTT single-stranded linker to array surface; dsDNA, one strand shown
Method in brief: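 Binding signal is reported as fluorescence intensity per feature (arbitrary units) from an Axon 4000B scanner. Incubation used 200 nM of each Ni–NTA-purified, N-terminally polyhistidine- and DsRed-fused transcription factor from E. coli BL21-CodonPlus on a double-stranded custom Agilent array for 1 h at 25 °C, with 50 µM zinc acetate in the buffer, followed by washing.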

Row | Sequence | binding signal
1 | GGCGTCGACGCGTGGCCTCGACGTGGCAGCGCCGAACCGACGGAGTCACCTAGTGCAG | 13200 fluorescence intensity (a.u.)
2 | CTCTCGTTGAGGTCAAGCAGCCAAAGCCGTCATGTGGCATCGGAGTCACCTAGTGCAG | 3500 fluorescence intensity (a.u.)
3 | CTAGTCTCCTTAAAACTTACTCACATGTCACATGGGTGCACGGAGTCACCTAGTGCAG | 3480 fluorescence intensity (a.u.)
4 | TTCAGCCGGGGAAACACATGTGACTACCAGGCTGTAGCGCCGGAGTCACCTAGTGCAG | 3480 fluorescence intensity (a.u.)
5 | TAGCAGGTTTCCTGCCAACTTGGCACACTTGCTTCGTGGTCGGAGTCACCTAGTGCAG | 3620 fluorescence intensity (a.u.)
6 | TCTTTATGAAGTCCTTGTCACAGTTGATGACTTGCTTAATCGGAGTCACCTAGTGCAG | 3650 fluorescence intensity (a.u.)
7 | AGCCTACTCGAGAACAATGTCAGGATAATCATCCTAATGGCGGAGTCACCTAGTGCAG | 3600 fluorescence intensity (a.u.)
8 | TGACGCCGGTGGGTTTGTGTGTTAGTGTGACATATGTGTGCGGAGTCACCTAGTGCAG | 3720 fluorescence intensity (a.u.)
9 | AAGAGCCAGCTCAACATGATGCTTGGTCTGTCCAGGGCCCCGGAGTCACCTAGTGCAG | 3980 fluorescence intensity (a.u.)
10 | GTTGTAGGCTGACGCAACTGCAATGGCAACATATCCGCTGCGGAGTCACCTAGTGCAG | 4300 fluorescence intensity (a.u.)
11 | ATAGTTCGTTGTCGTGCATGATGTGTACACGAAAGCTTTGCGGAGTCACCTAGTGCAG | 5700 fluorescence intensity (a.u.)
12 | GTGATTAATAAATAATATACACCTCATATTTAGTGTTGGTCGGAGTCACCTAGTGCAG | 4950 fluorescence intensity (a.u.)
13 | CCCGCTCAGCCCATGCGCCACCCGCCGCCGCGGCTGCCACCGGAGTCACCTAGTGCAG | 3560 fluorescence intensity (a.u.)
14 | AAATGATGTCACACCTTGACGCATGAAATTACCACCACCTCGGAGTCACCTAGTGCAG | 3430 fluorescence intensity (a.u.)
15 | GCTTAATGTGTCAACCGGACAGATTTCTGAGAACCTTGCACGGAGTCACCTAGTGCAG | 3480 fluorescence intensity (a.u.)
16 | TTAGCAAGTGCCTATGTGAGGATATAGCAATATTTCAATGCGGAGTCACCTAGTGCAG | 42200 fluorescence intensity (a.u.)
17 | GCAAGTAAGAGTCGAGTTGAGATGGGAGGTGTAATGTAGGCGGAGTCACCTAGTGCAG | 3220 fluorescence intensity (a.u.)
18 | TGTGAGTGTGTGACTAGTGCGGCGACTGTGCAGTGGTGTTCGGAGTCACCTAGTGCAG | 4110 fluorescence intensity (a.u.)
19 | TGTCTTCCCTAAATAGGGTGTGAAGTCATGCTGCATAACGCGGAGTCACCTAGTGCAG | 3200 fluorescence intensity (a.u.)
20 | ATGCCAGCCTAGCCTAGCCCATGTAAGCGCACGTGTTCAGCGGAGTCACCTAGTGCAG | 3290 fluorescence intensity (a.u.)
21 | AACTTAATTAGCGGCGAATAGTCGTGACACGTATTTTGTGCGGAGTCACCTAGTGCAG | 7020 fluorescence intensity (a.u.)

Look-ups from above:
binding signal, TGTGAGTGTGTGACTAGTGCGGCGACTGTGCAGTGGTGTTCGGAGTCACCTAGTGCAG is entered as 4110 fluorescence intensity (a.u.)
binding signal, CTAGTCTCCTTAAAACTTACTCACATGTCACATGGGTGCACGGAGTCACCTAGTGCAG is entered as 3480 fluorescence intensity (a.u.)

Carrying on:

Row | Sequence | binding signal
22 | CCGAGACTGACAACAGTGCAGCCAAGTCAACATCTCACAACGGAGTCACCTAGTGCAG | 3240 fluorescence intensity (a.u.)
23 | GCAACAGTGTTATGCAACAGTGTCATTCAGTCTCTACACACGGAGTCACCTAGTGCAG | 32000 fluorescence intensity (a.u.)
24 | GATCCACCACATCGTCGACGGCCTATCCACAACATCGTCGCGGAGTCACCTAGTGCAG | 3570 fluorescence intensity (a.u.)
25 | CGAAGCGATGGTAGGCAGGAACACGCTGTCAGCATAGTTGCGGAGTCACCTAGTGCAG | 4070 fluorescence intensity (a.u.)
26 | TTGTTCCTTTACAGTTTACAGTCATCTCTATTGTAGTATTCGGAGTCACCTAGTGCAG | 4220 fluorescence intensity (a.u.)
27 | CATAGCGCGGGCGGCGGCGGCTGCCAAGCGCCGTCATCTGCGGAGTCACCTAGTGCAG | 3470 fluorescence intensity (a.u.)
28 | ACCCACCAAACACATCCACGTCCCTTCACCGTTGGCCTTCCGGAGTCACCTAGTGCAG | 5980 fluorescence intensity (a.u.)
29 | AACCTCTGACCTTTTGCGGCCCGCATCTGAGTCACCGACACGGAGTCACCTAGTGCAG | 12500 fluorescence intensity (a.u.)
30 | GCCTCCGTAAGGTGGGGTGTGTGTGTGTTGGCCATCGGTGCGGAGTCACCTAGTGCAG | 3640 fluorescence intensity (a.u.)
31 | CTCCTCACACATTCCCACGCACACATTTCCCCATGCACATCGGAGTCACCTAGTGCAG | 3180 fluorescence intensity (a.u.)
32 | TGGTGGTGGTGGTGGTAGGGTTAGGGGTAGGAGGGGTCTCCGGAGTCACCTAGTGCAG | 3850 fluorescence intensity (a.u.)
33 | GCGGCGGCTTTCCACCTCCCCGCCGGCTTCGCGCTCCCAACGGAGTCACCTAGTGCAG | 29900 fluorescence intensity (a.u.)
34 | GGCCGGCGGCGGCGGCAAGAGGAGCCAGCTCACCGTGTTCCGGAGTCACCTAGTGCAG | 4400 fluorescence intensity (a.u.)
35 | CGGACGTTTTCTCTCGGGTCAAGACTGCCACGTGTCGACACGGAGTCACCTAGTGCAG | 18600 fluorescence intensity (a.u.)
36 | CACCATAGAAATCGATTTGCACCGGTTTCCCAAGACGTGGCGGAGTCACCTAGTGCAG | 3280 fluorescence intensity (a.u.)
37 | CCGTCGCACTCAACGCTCTGTTTCACACACGCACGCACCCCGGAGTCACCTAGTGCAG | 3480 fluorescence intensity (a.u.)
38 | TCGATCGACCTCTGCTGCTGCCTCGCTGTCCTCTGCTACGCGGAGTCACCTAGTGCAG | 3440 fluorescence intensity (a.u.)
39 | GCCCGCCCACGGAGGCGCGCCACGGACACGTCCGGCGCGCCGGAGTCACCTAGTGCAG | 3180 fluorescence intensity (a.u.)
40 | CTCCTCCCGTCTCGTCGTCGTCACCGCCGCCGGCTCACCCCGGAGTCACCTAGTGCAG | 5160 fluorescence intensity (a.u.)
41 | CAAGCCGGGTGGGAAGGGGCGGGACTCCATACTGCTGCCGCGGAGTCACCTAGTGCAG | 3170 fluorescence intensity (a.u.)
42 | TGATCAATCAAGAAGACGATCGTGCCGATATCATGGCACCCGGAGTCACCTAGTGCAG | 3940 fluorescence intensity (a.u.)
